Data taken from the supplement of paper PMC10849652.
The other results are listed elsewhere or left out.

Chains of the proteins cited; added tags and fusions are not shown. Lines headed by an entry give the natural chain unless they say otherwise; changes in a name come on top.
UniProt O00462: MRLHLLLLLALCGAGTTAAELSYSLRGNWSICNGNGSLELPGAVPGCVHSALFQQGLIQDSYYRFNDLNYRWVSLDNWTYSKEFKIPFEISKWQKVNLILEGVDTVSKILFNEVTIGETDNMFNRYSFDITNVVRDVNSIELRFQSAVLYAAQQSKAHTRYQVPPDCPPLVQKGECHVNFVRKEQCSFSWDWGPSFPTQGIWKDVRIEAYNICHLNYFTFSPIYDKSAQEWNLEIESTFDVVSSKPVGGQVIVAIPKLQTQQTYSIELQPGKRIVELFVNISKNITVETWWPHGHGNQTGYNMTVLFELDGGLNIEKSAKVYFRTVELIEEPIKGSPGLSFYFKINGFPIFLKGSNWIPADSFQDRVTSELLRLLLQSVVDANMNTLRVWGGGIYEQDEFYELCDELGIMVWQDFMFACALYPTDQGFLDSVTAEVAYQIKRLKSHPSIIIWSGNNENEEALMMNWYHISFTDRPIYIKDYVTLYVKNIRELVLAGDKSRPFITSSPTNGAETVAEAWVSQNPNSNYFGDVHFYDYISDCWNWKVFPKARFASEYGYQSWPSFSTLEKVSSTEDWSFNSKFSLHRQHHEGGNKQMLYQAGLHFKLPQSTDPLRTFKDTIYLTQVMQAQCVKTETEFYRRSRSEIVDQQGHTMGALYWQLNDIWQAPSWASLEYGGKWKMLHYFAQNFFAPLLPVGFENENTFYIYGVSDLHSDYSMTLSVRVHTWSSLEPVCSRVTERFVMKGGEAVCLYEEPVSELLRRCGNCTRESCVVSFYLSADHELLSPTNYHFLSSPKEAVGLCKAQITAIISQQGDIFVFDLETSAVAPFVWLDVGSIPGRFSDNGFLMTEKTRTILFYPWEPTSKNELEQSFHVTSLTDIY
UniProt O60732: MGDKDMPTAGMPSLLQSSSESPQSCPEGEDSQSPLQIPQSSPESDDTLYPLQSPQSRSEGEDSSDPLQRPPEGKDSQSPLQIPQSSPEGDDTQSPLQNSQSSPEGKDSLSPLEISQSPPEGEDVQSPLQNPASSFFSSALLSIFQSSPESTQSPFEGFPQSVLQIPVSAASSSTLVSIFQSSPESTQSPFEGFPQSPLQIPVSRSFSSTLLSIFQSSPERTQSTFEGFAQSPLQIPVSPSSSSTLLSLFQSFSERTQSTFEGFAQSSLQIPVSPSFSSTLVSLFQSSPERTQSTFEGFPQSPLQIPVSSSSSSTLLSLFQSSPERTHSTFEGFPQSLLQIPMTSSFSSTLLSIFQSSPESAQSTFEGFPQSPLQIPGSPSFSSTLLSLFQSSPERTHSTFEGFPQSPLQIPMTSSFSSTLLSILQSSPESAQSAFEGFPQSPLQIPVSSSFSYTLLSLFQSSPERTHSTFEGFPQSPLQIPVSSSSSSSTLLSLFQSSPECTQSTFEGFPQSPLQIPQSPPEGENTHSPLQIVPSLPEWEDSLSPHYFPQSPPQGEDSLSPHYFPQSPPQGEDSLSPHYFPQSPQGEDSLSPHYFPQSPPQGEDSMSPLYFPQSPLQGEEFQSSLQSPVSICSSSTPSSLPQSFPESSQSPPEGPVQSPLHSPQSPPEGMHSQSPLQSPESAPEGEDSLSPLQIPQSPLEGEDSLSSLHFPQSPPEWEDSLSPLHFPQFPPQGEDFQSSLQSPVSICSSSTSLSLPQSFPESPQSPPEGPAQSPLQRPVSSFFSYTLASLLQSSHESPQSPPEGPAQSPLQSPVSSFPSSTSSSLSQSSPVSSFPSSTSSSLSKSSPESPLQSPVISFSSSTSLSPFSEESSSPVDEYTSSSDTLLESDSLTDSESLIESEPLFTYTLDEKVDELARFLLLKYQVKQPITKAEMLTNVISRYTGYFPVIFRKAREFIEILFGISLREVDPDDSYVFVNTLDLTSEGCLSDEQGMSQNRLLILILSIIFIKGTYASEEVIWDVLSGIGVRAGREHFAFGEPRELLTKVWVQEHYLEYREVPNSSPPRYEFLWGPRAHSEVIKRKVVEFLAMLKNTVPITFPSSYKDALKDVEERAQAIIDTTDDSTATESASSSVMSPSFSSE
UniProt Q86UD3: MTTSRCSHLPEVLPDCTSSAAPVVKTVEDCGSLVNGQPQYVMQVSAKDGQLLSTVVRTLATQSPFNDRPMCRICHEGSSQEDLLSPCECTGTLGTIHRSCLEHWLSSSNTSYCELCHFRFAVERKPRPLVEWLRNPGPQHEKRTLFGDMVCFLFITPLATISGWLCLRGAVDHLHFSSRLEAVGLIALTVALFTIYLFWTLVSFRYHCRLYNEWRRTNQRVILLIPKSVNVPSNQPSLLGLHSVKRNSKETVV
UniProt Q5VWZ2: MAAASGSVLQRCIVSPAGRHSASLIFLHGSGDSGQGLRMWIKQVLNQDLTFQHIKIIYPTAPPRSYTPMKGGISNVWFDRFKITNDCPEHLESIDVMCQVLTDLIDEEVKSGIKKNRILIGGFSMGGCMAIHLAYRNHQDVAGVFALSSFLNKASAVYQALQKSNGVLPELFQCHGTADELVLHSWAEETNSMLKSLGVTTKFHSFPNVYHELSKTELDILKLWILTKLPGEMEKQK
UniProt Q3MHD2: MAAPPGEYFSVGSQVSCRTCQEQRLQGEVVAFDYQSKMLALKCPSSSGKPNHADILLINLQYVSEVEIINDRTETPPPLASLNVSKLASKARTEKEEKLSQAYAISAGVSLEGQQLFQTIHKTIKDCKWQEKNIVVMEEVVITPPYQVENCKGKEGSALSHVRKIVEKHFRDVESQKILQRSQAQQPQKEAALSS
UniProt Q6UWE0: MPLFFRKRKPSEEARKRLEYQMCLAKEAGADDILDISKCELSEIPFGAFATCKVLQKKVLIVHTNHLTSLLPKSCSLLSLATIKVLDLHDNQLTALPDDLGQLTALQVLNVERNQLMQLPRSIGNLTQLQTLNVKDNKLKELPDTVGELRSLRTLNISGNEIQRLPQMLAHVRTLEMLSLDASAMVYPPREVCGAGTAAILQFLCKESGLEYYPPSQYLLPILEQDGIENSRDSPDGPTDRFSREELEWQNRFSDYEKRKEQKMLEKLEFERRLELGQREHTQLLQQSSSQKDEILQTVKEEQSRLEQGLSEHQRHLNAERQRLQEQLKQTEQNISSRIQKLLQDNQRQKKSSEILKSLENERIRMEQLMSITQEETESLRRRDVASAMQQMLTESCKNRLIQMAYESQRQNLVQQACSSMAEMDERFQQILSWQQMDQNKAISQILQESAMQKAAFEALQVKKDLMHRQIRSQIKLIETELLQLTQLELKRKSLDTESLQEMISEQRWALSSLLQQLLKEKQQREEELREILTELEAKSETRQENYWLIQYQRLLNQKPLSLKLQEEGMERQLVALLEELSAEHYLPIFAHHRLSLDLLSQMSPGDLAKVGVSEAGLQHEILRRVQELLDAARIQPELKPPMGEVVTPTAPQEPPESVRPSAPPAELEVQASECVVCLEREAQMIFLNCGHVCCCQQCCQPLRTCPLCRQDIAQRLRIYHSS
UniProt O95777: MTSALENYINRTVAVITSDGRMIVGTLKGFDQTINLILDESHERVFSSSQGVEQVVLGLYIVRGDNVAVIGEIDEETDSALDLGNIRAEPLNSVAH
UniProt O43325: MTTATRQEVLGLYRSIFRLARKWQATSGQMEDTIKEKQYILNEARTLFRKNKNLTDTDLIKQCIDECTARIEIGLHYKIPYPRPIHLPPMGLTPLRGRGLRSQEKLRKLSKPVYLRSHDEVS
UniProt P33908: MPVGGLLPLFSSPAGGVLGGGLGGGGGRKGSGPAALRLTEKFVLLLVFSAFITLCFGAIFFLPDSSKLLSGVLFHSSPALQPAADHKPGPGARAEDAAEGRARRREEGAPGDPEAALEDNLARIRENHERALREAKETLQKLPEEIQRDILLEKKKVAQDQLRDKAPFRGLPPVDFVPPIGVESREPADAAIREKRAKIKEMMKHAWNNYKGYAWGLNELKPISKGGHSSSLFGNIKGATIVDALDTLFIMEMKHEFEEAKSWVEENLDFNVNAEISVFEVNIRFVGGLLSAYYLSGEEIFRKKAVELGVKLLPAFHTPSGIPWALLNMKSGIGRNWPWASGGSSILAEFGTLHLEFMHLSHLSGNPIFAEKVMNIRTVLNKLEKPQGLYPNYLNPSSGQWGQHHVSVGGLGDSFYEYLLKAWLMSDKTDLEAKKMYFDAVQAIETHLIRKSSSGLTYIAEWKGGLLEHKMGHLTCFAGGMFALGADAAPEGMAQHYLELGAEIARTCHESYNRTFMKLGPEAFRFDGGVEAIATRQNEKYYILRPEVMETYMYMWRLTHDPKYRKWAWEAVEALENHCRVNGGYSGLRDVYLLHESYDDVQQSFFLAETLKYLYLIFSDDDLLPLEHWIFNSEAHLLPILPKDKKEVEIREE
UniProt Q9NQ48: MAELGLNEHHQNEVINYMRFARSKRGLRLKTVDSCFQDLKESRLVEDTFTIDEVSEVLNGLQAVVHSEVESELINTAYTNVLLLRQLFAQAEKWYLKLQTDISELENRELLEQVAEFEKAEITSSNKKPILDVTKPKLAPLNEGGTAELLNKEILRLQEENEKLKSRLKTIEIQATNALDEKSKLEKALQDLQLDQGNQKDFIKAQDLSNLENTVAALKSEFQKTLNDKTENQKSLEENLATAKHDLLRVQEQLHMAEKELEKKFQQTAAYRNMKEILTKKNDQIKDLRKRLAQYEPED
UniProt Q9NU23: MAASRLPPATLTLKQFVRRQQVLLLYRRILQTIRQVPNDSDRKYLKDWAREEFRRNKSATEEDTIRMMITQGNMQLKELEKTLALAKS
UniProt P28482, whole entry, looked up: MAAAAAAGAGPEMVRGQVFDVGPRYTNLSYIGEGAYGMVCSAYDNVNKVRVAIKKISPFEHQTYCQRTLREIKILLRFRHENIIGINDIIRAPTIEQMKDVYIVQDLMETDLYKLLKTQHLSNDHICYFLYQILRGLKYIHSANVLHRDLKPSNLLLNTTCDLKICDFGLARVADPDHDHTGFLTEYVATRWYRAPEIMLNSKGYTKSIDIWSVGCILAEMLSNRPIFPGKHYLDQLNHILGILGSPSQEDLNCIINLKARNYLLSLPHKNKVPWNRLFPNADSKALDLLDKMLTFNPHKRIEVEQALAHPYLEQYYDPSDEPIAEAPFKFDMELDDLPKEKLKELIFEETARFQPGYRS
UniProt O15479: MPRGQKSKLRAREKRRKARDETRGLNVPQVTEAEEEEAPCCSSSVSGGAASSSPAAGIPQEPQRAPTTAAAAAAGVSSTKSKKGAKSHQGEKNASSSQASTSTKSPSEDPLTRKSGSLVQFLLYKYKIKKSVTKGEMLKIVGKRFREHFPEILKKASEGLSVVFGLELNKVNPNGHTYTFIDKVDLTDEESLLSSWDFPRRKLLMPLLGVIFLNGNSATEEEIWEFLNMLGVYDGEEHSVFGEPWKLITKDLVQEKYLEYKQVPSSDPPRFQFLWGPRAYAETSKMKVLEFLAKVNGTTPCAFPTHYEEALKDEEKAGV
UniProt Q7L5Y9: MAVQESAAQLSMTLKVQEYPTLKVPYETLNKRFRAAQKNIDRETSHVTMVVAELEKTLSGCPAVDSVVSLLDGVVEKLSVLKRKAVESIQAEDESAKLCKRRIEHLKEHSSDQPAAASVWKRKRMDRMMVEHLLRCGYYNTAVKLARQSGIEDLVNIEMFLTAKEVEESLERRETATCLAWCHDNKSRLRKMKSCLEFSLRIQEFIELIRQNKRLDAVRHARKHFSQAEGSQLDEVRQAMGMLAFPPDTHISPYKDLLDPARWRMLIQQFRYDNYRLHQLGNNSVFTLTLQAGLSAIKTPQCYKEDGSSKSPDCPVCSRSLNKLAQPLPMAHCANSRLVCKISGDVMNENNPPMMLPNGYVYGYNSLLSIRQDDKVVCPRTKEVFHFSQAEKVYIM
UniProt P45985: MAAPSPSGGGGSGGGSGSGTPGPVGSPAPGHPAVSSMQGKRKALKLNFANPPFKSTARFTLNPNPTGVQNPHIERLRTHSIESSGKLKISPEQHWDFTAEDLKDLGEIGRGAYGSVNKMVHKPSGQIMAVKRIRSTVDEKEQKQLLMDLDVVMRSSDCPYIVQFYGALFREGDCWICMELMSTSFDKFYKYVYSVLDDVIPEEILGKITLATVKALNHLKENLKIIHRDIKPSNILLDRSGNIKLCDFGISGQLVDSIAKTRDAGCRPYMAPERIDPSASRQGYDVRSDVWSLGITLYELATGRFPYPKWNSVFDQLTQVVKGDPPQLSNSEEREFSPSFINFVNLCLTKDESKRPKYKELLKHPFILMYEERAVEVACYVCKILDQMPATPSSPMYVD

Experiments:
Test in all cases: log2 fold change, soluble protein after heating vs DMSO (PISA); higher = thermal stabilisation; K562 cells, 10 uM, 30 min; active = over 0.2 and 3.5 SD of the protein, either way, in both replicates (recomputed)
[1] = compound: CC[C@@H]1C(=O)N(C)c2cnc(Nc3ccc(C(=O)NC4CCN(C)CC4)cc3OC)nc2N1C1CCCC1
How it was run: (§1)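 For each measurement, 10 μM compound was applied for 30 min to K562 cells at 2×10^6 cells/mL. Aliquots were heated for 3 min across 48°C-58°C, pooled, and extracted in PBS with 0.5% NP-40 at 4°C; the supernatant after 21,000xg for 90 min was soluble protein. This was quantified by TMTpro 16plex LC-MS/MS with channel sums equalised, and thermal stability was reported relative to control samples from duplicates, on a log2 fold-change scale.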

[2] = compound: CC[C@@H]1C(=O)N(C)c2cnc(Nc3ccc(C(=O)N[C@H]4CC[C@H](N5CCN(CC6CC6)CC5)CC4)cc3OC)nc2N1C(C)C [volasertib]
How it was run: as §1

[3] = compound: CC[C@H](C)N1C=C(C2=C(C=C(C=C21)C3=CN=C(C=C3)N4CCNCC4)C(=O)NCC5=C(C=C(NC5=O)C)C)C
How it was run: as §1

[4] = compound: CC[C@H](C)[C@@H](C(=O)N[C@@H]([C@@H](C)O)C(=O)N[C@@H](CC(C)C)C(=O)[C@]1(CO1)C)NC(=O)[C@H]([C@@H](C)CC)N(C)C(=O)C [epoxomicin]
How it was run: as §1

[5] = compound: CCn1c(C(=O)N(C2CC2)C2CC2)cc2c3c(ncn3C)c(Nc3cc(C)n(C)n3)nc21
How it was run: as §1

[6] = compound: CCn1cc(-c2ccnc3[nH]c(-c4cccc(CN(C)C)c4)cc23)c(-c2ccc(NC(=O)N(C)C)cc2)n1
How it was run: as §1

[7] = compound: CN(C)CC(=O)Nc1ccc2[nH]c(=O)c3ccccc3c2c1
How it was run: as §1

[8] = compound: CN(CCOC1=CC=C(C=C1)C[C@H]2C(=O)NC(=O)S2)C3=CC=CC=N3 (racemic) [rosiglitazone]
How it was run: as §1

[9] = compound: CN1C2=C(C3=C1C(=O)N(N=C3)CC4=CC(=CC=C4)N)SC(=C2)S(=O)C
How it was run: as §1

[10] = compound: CN1CCC(CNc2ccc3ncc(-c4cccc(OC(F)(F)F)c4)n3n2)CC1
How it was run: as §1

Measured: log2 fold change

MACROD1 (UniProt Q9BQ69)
inactive: [1] -0.033 | [2] -0.27 | [3] 0.067 | [4] 0.162 | [5] -0.195 | [6] -0.057 | [7] 0.122 | [8] 0.103 | [9] -0.031 | [10] -0.113

MAPK6 (UniProt Q16659)
inactive: [1] -0.022 | [2] 0.102 | [3] 0.052 | [4] 0.114 | [5] -0.033 | [6] -0.197 | [7] 0.165 | [8] -0.088 | [9] 0.091 | [10] 0.067

MAP4K2 (UniProt Q12851)
inactive: [1] -0.044 | [2] -0.093 | [3] 0.298

MAN1A2 (UniProt O60476)
inactive: [1] -0.035 | [2] -0.116 | [3] 0.038 | [4] 0.007 | [5] -0.011 | [6] 0.032 | [7] -0.021 | [8] 0.006 | [9] -0.024 | [10] 0.013

MANBA (UniProt O00462)
inactive: [1] -0.006 | [2] -0.049 | [3] 0.01 | [4] -0.024 | [5] -0.009 | [6] -0.007 | [7] 0.055 | [8] 0.001 | [9] -0.048 | [10] -0.138

LSM3 (UniProt P62310)
inactive: [1] 0.007 | [2] 0.01 | [3] -0.069 | [4] -0.02 | [5] 0.002 | [6] -0.12 | [7] 0.02 | [8] -0.056 | [9] -0.044 | [10] 0.102

MAGEC1 (UniProt O60732)
inactive: [1] -0.019 | [2] -0.296 | [3] 0.023 | [4] -0.058 | [5] -0.065 | [6] 0.021 | [7] 0.028 | [8] -0.121 | [9] 0.162 | [10] 0.023

LSM14B (UniProt Q9BX40)
inactive: [1] 0.025 | [2] -0.181 | [3] 0.105 | [4] -0.043 | [5] -0.031 | [6] -0.056 | [7] 0.038 | [8] 0.057 | [9] 0.181 | [10] -0.015

MARCHF3 (UniProt Q86UD3)
inactive: [1] 0.116 | [2] 0.011 | [3] 0.018 | [4] 0.036

LYPLAL1 (UniProt Q5VWZ2)
inactive: [1] 0.031 | [2] 0.04 | [3] 0.004 | [4] 0.075 | [5] -0.02 | [6] -0.055 | [7] 0 | [8] 0.124 | [9] -0.068 | [10] -0.054

LSM12 isoform 2 (UniProt Q3MHD2)
inactive: [1] 0.01 | [2] -0.027 | [3] -0.016 | [4] 0.04 | [5] -0.109 | [6] 0.115 | [7] 0.004 | [8] -0.067 | [9] 0.011 | [10] 0.089

2 successive records out of the list so far:
MAP4K2 (UniProt Q12851)
inactive: [1] -0.044 | [2] -0.093 | [3] 0.298

MAN1A2 (UniProt O60476)
inactive: [1] -0.035 | [2] -0.116 | [3] 0.038 | [4] 0.007 | [5] -0.011 | [6] 0.032 | [7] -0.021 | [8] 0.006 | [9] -0.024 | [10] 0.013

Additional results

LRSAM1 (UniProt Q6UWE0)
inactive: [1] -0.085 | [2] -0.204 | [3] 0.028 | [4] 0.077 | [5] -0.024 | [6] -0.052 | [7] -0.02 | [8] 0.02 | [9] -0.002 | [10] -0.172

MAP7 isoform 7 (UniProt Q14244)
inactive: [1] 0.361 | [2] 0.392 | [3] 0.043 | [4] -0.365 | [5] -0.025 | [6] 0.036 | [7] -0.192 | [8] -0.216 | [9] 0.314 | [10] 0.259

MAP4 isoform 5 (UniProt P27816)
inactive: [1] -0.001 | [2] -0.046 | [3] -0.258 | [4] 0.134

LRRC8A (UniProt Q8IWT6)
inactive: [1] 0.11 | [2] 0.066 | [3] -0.001 | [4] -0.103 | [5] 0.001 | [6] 0.101 | [7] 0.033 | [8] 0.004 | [9] 0.184 | [10] 0.07

LSM8 (UniProt O95777)
inactive: [1] 0.064 | [2] 0.084 | [3] -0.043 | [4] -0.053 | [5] 0.03 | [6] -0.006 | [7] -0.007 | [8] 0.008 | [9] -0.049 | [10] 0.02

LYRM1 (UniProt O43325)
inactive: [1] 0.23 | [2] -0.009 | [3] 0.057 | [4] 0.076 | [5] 0.025 | [6] -0.12 | [7] -0.021 | [8] 0.047 | [9] -0.018 | [10] 0.259

LYAR (UniProt Q9NX58)
inactive: [1] 0.306 | [2] 0.377 | [3] -0.009 | [4] -0.502 | [5] 0.119 | [6] 0.351 | [7] -0.207 | [8] -0.177 | [9] 0.383 | [10] 0.608

MACF1 (UniProt Q9UPN3)
inactive: [1] 0.062 | [2] -0.05 | [3] 0.036 | [4] -0.032 | [5] -0.03 | [6] 0 | [7] 0.017 | [8] 0.005 | [9] 0.115 | [10] 0.021

MACF1 (UniProt H3BQK9)
inactive: [1] -0.067 | [2] -0.098 | [3] 0.134 | [4] -0.029 | [5] -0.014 | [6] 0.006 | [7] -0.007 | [8] 0.061 | [9] -0.106 | [10] 0.107

MAN1A1 (UniProt P33908)
inactive: [1] 0.03 | [2] -0.012 | [3] -0.028 | [4] -0.018 | [5] 0 | [6] 0.041 | [7] -0.035 | [8] 0.009 | [9] -0.048 | [10] 0.079

LZTFL1 (UniProt Q9NQ48)
inactive: [1] -0.006 | [2] -0.017 | [3] 0.014 | [4] 0.065 | [5] 0.014 | [6] -0.039 | [7] -0.009 | [8] 0.064 | [9] -0.083 | [10] 0.043

MARS (UniProt P56192)
inactive: [1] -0.007 | [2] -0.078 | [3] 0.067 | [4] -0.018 | [5] -0.009 | [6] 0.005 | [7] -0.001 | [8] -0.014 | [9] 0.049 | [10] -0.067

LYRM2 (UniProt Q9NU23)
inactive: [1] 0 | [2] -0.035 | [3] -0.007 | [4] -0.014 | [5] -0.068 | [6] 0.02 | [7] 0.028 | [8] 0.023 | [9] -0.074 | [10] 0.007

MAPK1 (UniProt P28482)
inactive: [1] 0.013 | [2] 0.059 | [3] -0.025 | [4] 0.045 | [5] 0.001 | [6] 0.013 | [7] -0.004 | [8] 0.01 | [9] -0.05 | [10] -0.012

LYRM7 (UniProt Q5U5X0)
inactive: [1] 0.013 | [2] -0.008 | [3] 0.018 | [4] 0.009 | [5] 0.04 | [6] 0.026 | [7] 0.036 | [8] 0.009 | [9] -0.031 | [10] -0.007

MAP1A isoform 2 (UniProt P78559)
inactive: [1] 0.086 | [2] 0.208 | [3] 0 | [4] -0.078 | [5] 0.013 | [6] 0.024 | [7] -0.031 | [8] -0.003 | [9] 0.123 | [10] 0.026

MAGEB2 (UniProt O15479)
inactive: [1] -0.031 | [2] 0.302 | [3] 0.052 | [4] -0.521 | [5] 0.016 | [6] 0.131 | [7] -0.132 | [8] -0.101 | [9] 0.435 | [10] 0.123

MAEA (UniProt Q7L5Y9)
inactive: [1] -0.009 | [2] -0.13 | [3] 0.007 | [4] 0.022 | [5] -0.001 | [6] 0.005 | [7] -0.049 | [8] 0.04 | [9] 0.028 | [10] 0.009

LZIC isoform 2 (UniProt Q8WZA0)
inactive: [1] 0.007 | [2] 0.092 | [3] -0.016 | [4] 0.047 | [5] 0.027 | [6] -0.023 | [7] -0.014 | [8] 0.01 | [9] -0.047 | [10] -0.102

MAP2K4 isoform 2 (UniProt P45985)
inactive: [1] -0.086 | [2] -0.11 | [3] 0.015 | [4] 0.008 | [5] 0.004 | [6] -0.019 | [7] 0.021 | [8] 0.045 | [9] -0.052 | [10] -0.103
